Measurements as given in the supplement of paper PMC10849652.
Some of the results follow.

The chains behind the UniProt entries cited, without tags or fusion partners. Where a name states a change or a piece, a line headed by the entry shows the natural chain unless it says otherwise.
UniProt P01037: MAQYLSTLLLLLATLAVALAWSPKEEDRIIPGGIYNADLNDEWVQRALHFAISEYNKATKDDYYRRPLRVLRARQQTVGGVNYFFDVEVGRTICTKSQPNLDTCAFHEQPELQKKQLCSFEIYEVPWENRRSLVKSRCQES
UniProt Q9BTE7: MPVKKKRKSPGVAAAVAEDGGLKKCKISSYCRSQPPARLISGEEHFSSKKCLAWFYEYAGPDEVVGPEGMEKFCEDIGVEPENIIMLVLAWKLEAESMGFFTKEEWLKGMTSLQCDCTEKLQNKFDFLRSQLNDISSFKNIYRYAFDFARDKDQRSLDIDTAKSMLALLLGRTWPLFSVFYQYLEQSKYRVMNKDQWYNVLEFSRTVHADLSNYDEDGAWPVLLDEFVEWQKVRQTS
UniProt P00167, whole entry, looked up: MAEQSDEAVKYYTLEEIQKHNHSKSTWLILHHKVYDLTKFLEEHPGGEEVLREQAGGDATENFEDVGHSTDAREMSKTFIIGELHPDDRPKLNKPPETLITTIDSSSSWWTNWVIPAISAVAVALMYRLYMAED
UniProt Q6ZWL3: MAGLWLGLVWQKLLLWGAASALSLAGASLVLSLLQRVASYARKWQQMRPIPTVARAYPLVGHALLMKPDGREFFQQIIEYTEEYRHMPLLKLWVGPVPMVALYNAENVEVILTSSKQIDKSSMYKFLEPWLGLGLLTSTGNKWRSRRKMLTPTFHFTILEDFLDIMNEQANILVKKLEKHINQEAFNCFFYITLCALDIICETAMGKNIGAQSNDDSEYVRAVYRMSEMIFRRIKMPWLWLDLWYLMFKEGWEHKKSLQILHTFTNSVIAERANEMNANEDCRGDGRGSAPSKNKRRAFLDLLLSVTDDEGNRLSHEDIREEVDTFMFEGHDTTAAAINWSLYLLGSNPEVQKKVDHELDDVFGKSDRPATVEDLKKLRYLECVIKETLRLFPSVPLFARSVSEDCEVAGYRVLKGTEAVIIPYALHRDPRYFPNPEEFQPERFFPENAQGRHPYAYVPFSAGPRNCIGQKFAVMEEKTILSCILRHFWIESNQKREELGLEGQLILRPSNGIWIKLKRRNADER
UniProt Q86T65: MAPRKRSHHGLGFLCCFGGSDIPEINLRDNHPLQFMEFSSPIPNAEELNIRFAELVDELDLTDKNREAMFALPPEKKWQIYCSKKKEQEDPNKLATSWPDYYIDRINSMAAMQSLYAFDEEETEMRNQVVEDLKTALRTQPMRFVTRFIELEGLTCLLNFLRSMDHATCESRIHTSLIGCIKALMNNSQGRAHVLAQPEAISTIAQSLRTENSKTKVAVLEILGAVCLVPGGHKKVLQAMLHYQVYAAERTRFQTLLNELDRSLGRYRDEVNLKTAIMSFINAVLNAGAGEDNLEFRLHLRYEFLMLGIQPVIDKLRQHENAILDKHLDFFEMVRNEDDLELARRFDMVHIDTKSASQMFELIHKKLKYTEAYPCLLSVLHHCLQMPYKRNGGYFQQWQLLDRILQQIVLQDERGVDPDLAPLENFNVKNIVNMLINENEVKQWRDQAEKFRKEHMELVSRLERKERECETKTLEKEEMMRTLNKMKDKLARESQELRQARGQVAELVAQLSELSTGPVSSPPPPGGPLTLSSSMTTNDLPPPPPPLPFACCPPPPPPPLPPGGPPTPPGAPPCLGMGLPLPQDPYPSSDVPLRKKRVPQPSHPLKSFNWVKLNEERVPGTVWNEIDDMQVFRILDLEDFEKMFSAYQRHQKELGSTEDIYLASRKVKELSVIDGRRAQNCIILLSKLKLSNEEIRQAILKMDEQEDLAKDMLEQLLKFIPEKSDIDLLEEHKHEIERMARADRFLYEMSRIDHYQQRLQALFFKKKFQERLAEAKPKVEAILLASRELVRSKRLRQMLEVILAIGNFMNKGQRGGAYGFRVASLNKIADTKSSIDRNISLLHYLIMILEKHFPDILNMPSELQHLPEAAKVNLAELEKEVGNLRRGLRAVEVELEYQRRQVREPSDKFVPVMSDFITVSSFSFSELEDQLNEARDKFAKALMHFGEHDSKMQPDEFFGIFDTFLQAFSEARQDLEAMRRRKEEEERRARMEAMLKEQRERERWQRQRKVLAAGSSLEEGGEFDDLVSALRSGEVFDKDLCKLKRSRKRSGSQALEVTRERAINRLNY
UniProt Q16527: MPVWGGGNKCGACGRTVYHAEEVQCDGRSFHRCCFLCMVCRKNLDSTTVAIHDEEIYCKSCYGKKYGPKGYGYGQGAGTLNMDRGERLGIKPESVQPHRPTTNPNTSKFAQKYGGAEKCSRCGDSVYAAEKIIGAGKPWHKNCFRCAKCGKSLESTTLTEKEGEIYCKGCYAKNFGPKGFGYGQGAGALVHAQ
UniProt O43310: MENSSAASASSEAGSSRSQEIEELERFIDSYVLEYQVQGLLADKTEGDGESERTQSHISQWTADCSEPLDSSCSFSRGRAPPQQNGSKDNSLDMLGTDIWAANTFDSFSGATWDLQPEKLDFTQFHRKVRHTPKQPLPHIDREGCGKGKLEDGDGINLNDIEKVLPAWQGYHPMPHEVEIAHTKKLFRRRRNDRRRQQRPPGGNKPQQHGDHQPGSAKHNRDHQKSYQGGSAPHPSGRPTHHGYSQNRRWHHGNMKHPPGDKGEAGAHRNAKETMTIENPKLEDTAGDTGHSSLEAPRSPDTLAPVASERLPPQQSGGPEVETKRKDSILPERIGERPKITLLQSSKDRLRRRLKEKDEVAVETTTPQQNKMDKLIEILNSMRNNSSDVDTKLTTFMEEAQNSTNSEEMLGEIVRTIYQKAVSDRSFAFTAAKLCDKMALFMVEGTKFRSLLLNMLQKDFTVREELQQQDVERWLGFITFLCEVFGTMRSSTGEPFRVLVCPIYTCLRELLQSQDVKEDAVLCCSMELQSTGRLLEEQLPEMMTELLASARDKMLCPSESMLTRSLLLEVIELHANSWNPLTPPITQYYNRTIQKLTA
UniProt Q9UJU6: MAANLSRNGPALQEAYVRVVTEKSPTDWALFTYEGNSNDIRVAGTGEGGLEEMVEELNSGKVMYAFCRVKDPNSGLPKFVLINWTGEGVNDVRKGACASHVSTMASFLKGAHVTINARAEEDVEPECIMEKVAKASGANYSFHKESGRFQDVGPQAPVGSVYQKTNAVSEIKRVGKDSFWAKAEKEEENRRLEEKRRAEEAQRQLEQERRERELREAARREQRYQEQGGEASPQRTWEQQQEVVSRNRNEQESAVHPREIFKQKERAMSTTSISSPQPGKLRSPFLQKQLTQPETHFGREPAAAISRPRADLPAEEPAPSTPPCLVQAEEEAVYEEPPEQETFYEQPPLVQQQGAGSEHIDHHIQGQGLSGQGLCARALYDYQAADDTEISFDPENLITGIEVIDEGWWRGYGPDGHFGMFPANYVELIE
UniProt Q53TN4: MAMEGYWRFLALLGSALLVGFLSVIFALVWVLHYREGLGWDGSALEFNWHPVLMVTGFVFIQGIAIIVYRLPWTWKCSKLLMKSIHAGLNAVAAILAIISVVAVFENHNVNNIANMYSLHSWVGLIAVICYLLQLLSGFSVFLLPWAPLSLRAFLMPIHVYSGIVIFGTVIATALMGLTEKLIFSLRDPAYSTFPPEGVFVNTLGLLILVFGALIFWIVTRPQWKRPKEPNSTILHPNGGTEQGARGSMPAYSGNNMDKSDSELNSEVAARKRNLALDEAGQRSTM
UniProt Q99418: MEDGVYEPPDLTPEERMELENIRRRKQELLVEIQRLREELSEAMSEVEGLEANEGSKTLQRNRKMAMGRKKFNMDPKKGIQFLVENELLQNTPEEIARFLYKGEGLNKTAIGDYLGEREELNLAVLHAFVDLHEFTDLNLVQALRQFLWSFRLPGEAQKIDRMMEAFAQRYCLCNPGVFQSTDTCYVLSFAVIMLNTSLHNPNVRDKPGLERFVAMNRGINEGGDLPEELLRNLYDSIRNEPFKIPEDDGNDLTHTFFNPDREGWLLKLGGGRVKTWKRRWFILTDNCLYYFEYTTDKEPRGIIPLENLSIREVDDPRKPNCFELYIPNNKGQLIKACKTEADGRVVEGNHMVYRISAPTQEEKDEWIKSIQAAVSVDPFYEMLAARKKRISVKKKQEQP
UniProt Q9NSA3: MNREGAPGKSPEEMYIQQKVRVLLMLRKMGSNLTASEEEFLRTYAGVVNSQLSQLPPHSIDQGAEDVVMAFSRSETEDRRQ
UniProt Q6VVX0: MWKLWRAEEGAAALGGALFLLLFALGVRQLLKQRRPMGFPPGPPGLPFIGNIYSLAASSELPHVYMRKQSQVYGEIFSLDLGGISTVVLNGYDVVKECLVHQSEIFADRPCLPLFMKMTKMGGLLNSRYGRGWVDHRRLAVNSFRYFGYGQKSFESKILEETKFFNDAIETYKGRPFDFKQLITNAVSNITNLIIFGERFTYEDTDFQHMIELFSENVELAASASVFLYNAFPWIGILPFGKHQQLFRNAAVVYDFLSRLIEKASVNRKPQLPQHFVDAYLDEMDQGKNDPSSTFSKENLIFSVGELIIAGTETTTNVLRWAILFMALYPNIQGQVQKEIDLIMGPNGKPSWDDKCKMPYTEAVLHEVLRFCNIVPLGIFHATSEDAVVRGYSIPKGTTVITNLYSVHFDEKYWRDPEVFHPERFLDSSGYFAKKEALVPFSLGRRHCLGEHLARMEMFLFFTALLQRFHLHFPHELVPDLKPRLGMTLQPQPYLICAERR
UniProt Q96PD2: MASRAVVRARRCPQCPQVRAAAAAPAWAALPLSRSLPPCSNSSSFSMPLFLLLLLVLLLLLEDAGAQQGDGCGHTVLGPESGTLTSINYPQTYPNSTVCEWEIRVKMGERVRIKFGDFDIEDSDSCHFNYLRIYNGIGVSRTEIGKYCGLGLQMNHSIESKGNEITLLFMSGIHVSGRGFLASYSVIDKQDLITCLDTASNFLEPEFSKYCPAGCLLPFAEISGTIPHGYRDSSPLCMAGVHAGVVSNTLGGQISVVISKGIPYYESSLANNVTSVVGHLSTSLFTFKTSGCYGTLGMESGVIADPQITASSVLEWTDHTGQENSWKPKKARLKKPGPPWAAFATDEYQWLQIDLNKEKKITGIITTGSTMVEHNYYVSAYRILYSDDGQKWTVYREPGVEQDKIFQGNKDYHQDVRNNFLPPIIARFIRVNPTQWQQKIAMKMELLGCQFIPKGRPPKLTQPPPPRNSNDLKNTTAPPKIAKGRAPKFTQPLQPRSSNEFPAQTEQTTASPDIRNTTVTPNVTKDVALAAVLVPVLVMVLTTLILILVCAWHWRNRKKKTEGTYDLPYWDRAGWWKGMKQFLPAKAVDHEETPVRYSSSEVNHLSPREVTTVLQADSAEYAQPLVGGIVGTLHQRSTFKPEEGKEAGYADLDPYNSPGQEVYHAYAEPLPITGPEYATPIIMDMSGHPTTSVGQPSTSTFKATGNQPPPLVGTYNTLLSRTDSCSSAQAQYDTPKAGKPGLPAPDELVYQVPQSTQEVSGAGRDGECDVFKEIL
UniProt Q15438: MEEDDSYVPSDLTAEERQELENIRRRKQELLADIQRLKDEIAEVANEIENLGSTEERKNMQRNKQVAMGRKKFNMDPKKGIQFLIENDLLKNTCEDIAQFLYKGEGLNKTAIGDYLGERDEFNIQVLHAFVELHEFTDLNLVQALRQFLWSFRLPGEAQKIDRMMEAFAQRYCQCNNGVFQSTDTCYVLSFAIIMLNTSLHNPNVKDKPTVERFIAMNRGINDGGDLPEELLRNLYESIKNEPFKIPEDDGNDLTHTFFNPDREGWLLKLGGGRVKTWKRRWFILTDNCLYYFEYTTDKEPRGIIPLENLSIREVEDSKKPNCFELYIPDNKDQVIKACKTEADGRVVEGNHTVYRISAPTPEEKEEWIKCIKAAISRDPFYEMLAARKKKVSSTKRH
UniProt Q8WV16: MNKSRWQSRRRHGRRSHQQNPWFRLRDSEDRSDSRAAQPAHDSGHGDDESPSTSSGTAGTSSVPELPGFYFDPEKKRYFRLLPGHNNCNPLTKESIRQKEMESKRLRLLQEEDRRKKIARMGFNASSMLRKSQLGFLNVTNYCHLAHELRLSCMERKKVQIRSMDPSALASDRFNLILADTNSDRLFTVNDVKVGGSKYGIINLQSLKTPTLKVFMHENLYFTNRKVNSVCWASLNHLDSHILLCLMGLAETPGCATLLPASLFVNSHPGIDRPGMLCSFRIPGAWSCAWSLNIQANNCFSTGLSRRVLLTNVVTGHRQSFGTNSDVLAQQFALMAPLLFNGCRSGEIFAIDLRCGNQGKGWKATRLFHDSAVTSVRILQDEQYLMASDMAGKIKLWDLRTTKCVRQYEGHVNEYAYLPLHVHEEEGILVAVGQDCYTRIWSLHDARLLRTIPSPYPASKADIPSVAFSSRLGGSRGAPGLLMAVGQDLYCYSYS
UniProt Q9H9R9: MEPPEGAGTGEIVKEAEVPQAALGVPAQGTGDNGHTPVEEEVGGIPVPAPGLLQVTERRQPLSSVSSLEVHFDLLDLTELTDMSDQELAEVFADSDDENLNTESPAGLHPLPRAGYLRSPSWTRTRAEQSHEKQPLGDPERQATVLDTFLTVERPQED
UniProt Q96DE9: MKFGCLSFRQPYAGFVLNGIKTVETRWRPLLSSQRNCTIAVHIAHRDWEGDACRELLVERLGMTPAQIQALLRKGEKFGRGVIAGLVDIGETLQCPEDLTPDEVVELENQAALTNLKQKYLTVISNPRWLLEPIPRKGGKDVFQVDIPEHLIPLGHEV

Tests used:
Experiment in all cases: log2 fold change, soluble protein after heating vs DMSO (PISA); higher = thermal stabilisation; K562 cells, 10 uM, 30 min; active = over 0.2 and 3.5 SD of the protein, either way, in both replicates (recomputed)
[1] = compound: CS(=O)(=O)c1ccc(-c2cnc(N)c(C(=O)Nc3ccccc3)n2)cc1
Summary of the method: (§1)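 Values are thermal stability changes relative to control samples and are taken from duplicates. They are stated as log2 fold changes. Before quantification by TMTpro 16plex LC-MS/MS with equalised channel sums, K562 cells at 2×10^6 cells/mL were treated with 10 μM compound for 30 min, heated in aliquots for 3 min across 48°C-58°C, pooled, extracted in PBS with 0.5% NP-40 at 4°C, and centrifuged at 21,000xg for 90 min to give the soluble supernatant.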

[2] = compound: C[C@@H]1COCCN1C2=NC(=NC(=C2)C3(CC3)S(=O)(=O)C)C4=C5C=CNC5=CC=C4
Summary of the method: as §1

duvelisib = compound: C[C@H](Nc1ncnc2nc[nH]c12)c1cc2cccc(Cl)c2c(=O)n1-c1ccccc1 [duvelisib]
Summary of the method: as §1

[3] = compound: Cc1cc(SCc2sc(-c3ccc(C(F)(F)F)cc3)nc2C)ccc1OCC(=O)O
Summary of the method: as §1

ispinesib = compound: Cc1ccc(C(=O)N(CCCN)[C@@H](c2nc3cc(Cl)ccc3c(=O)n2Cc2ccccc2)C(C)C)cc1 [ispinesib]
Summary of the method: as §1

crizotinib = compound: C[C@@H](Oc1cc(-c2cnn(C3CCNCC3)c2)cnc1N)c1c(Cl)ccc(F)c1Cl [crizotinib]
Summary of the method: as §1

[4] = compound: C[C@H](C1=CC=C(C=C1)C(=O)NC2=C3C=CNC3=NC=C2)N
Summary of the method: as §1

gandotinib = compound: Cc1cc(Nc2cc(CN3CCOCC3)c3nc(C)c(Cc4ccc(Cl)cc4F)n3n2)n[nH]1 [gandotinib]
Summary of the method: as §1

tozasertib = compound: Cc1cc(Nc2cc(N3CCN(C)CC3)nc(Sc3ccc(NC(=O)C4CC4)cc3)n2)n[nH]1 [tozasertib]
Summary of the method: as §1

doramapimod = compound: Cc1ccc(-n2nc(C(C)(C)C)cc2NC(=O)Nc2ccc(OCCN3CCOCC3)c3ccccc23)cc1 [doramapimod]
Summary of the method: as §1

Measured: log2 fold change

CST1 (UniProt P01037)
inactive: [1] 0.2 | [2] 0.123 | duvelisib -0.242 | [3] -0.119

CXXC5 (UniProt Q7LFL8)
inactive: [2] -0.006 | duvelisib 0.078 | [3] -0.211 | ispinesib 0.033

CYB561 (UniProt P49447)
inactive: crizotinib 0.228 | [4] -0.067 | duvelisib 0.066 | gandotinib -0.249 | tozasertib 0.155 | [3] -0.032 | doramapimod 0.045 | ispinesib 0.011

CST4 (UniProt P01036)
inactive: [1] 0.406 | [4] -0.174

DCUN1D5 (UniProt Q9BTE7)
inactive: crizotinib 0.059 | gandotinib -0.156 | tozasertib 0.092 | doramapimod -0.005 | ispinesib -0.237

DAPK1 isoform 3 (UniProt P53355)
inactive: [1] -0.03 | [2] -0.031 | ispinesib -0.23

CTDSPL2 (UniProt Q05D32)
inactive: [2] 0.086 | [4] 0.143 | duvelisib -0.077 | gandotinib -0.016 | [3] 0.155

CYB5A (UniProt P00167)
inactive: [1] -0.043 | [2] 0.16 | duvelisib 0.059 | gandotinib 0.082 | [3] -0.023 | ispinesib 0.079

CYP4V2 (UniProt Q6ZWL3)
inactive: crizotinib -0.087 | [2] 0.036 | [4] 0.011 | duvelisib -0.002 | gandotinib 0.071 | [3] 0.005 | doramapimod 0.049 | ispinesib -0.066

DAAM2 (UniProt Q86T65)
inactive: crizotinib 0.087 | [2] 0.338 | duvelisib 0.048 | [3] 0.023 | doramapimod 0.11 | ispinesib -0.061

CST6 (UniProt Q15828)
inactive: [1] 0.038 | [2] 0.09 | tozasertib 0.276

CSRP2 (UniProt Q16527)
inactive: [1] -0.078 | [4] 0.021 | tozasertib -0.032 | ispinesib -0.234

CTIF (UniProt O43310)
inactive: [1] 0.093 | [2] 0.023 | [4] 0.176 | tozasertib -0.108 | ispinesib -0.012

DBNL (UniProt Q9UJU6)
inactive: [4] -0.166

Fetched one by one from the entries so far, 2 records:
DBNL (UniProt Q9UJU6)
inactive: [4] -0.166

DAAM2 (UniProt Q86T65)
inactive: crizotinib 0.087 | [2] 0.338 | duvelisib 0.048 | [3] 0.023 | doramapimod 0.11 | ispinesib -0.061

More records:

CYREN (UniProt Q9BWK5)
inactive: crizotinib 0.036 | gandotinib -0.053 | doramapimod 0.051 | ispinesib 0.003

CTDNEP1 (UniProt O95476)
inactive: [1] -0.055 | [4] 0.022 | duvelisib 0.02 | gandotinib -0.013 | tozasertib 0.1 | [3] 0.179

CYBRD1 (UniProt Q53TN4)
inactive: crizotinib 0.01 | [4] 0.116 | duvelisib 0.028 | gandotinib 0.157 | [3] 0.017 | doramapimod 0.008 | ispinesib -0.058

DCAF17 (UniProt Q5H9S7)
inactive: [2] 0.022

CYTH2 (UniProt Q99418)
inactive: crizotinib -0.056 | duvelisib 0.07 | tozasertib -0.207 | [3] -0.046 | doramapimod -0.103

CTNNBIP1 (UniProt Q9NSA3)
inactive: [4] 0.008 | duvelisib 0.211 | gandotinib -0.065 | [3] 0.032

CYP2R1 (UniProt Q6VVX0)
inactive: [4] 0.006 | tozasertib 0.04

DCBLD1 (UniProt Q8N8Z6)
inactive: [2] 0.166 | [4] -0.066 | duvelisib -0.019 | [3] -0.159

CYREN isoform 4 (UniProt Q9BWK5)
inactive: crizotinib 0.016 | duvelisib 0.202 | gandotinib 0.018 | [3] -0.183 | doramapimod 0.132

CTSF (UniProt Q9UBX1)
inactive: [2] 0.07 | gandotinib 0.024

CYP24A1 (UniProt Q07973)
inactive: crizotinib -0.043 | gandotinib 0.535 | [3] -0.13 | doramapimod 0.283 | ispinesib -0.244

CXCL14 (UniProt O95715)
inactive: [1] -0.181 | crizotinib 0.215 | doramapimod 0.166

DCBLD2 isoform 2 (UniProt Q96PD2)
inactive: duvelisib 0.285 | [3] -0.105

DAAM1 (UniProt Q9Y4D1)
inactive: [4] -0.06 | duvelisib 0.043 | [3] 0.195

CTDSP1 (UniProt Q9GZU7)
inactive: gandotinib -0.065 | tozasertib -0.192 | ispinesib -0.269

DCP1B (UniProt Q8IZD4)
inactive: tozasertib -0.047

DCAF12 (UniProt Q5T6F0)
inactive: [1] -0.101
active: gandotinib -0.735

CTNS isoform 2 (UniProt O60931)
inactive: [1] -0.114 | [4] 0.006

CYTH1 (UniProt Q15438)
inactive: [2] -0.044 | duvelisib -0.013 | tozasertib 0.117 | [3] 0.056

DCAF4 (UniProt Q8WV16)
inactive: [1] -0.06 | [2] 0.032 | gandotinib 0.07 | [3] -0.056 | ispinesib -0.165

DAPK2 isoform 2 (UniProt Q9UIK4)
inactive: [1] -0.122 | crizotinib 0.065 | doramapimod -0.064

CSPG5 (UniProt O95196)
inactive: [1] 0.143 | [2] 0.224

CUL7 isoform 2 (UniProt Q14999)
inactive: [2] -0.019 | duvelisib -0.229 | gandotinib 0.44 | tozasertib -0.029 | [3] 0.119 | ispinesib -0.288

DBNDD1 isoform 3 (UniProt Q9H9R9)
inactive: [1] -0.198 | [2] -0.014

CXorf40B (UniProt Q96DE9)
inactive: crizotinib 0.028 | [2] 0.025 | [4] 0.078 | duvelisib 0.161 | gandotinib -0.015 | [3] 0.099 | doramapimod -0.143 | ispinesib -0.025
